{"source": "patent US20240199557A1", "about": "“METHODS OF MAKING 1-BENZYL-4-PHENYL-1H-1,2,3-TRIAZOLE (BPT) AND BPT COATED STRUCTURES” (BOARD OF REGENTS, THE UNIVERSITY OF TEXAS SYSTEM, priority 2022, published 2024)", "key": {"[1]": {"assay": "Open circuit potential (OCP) of steel rebar in synthetic pore solution", "conditions": "2M NaCl", "description": "The steel cylinder working electrode (WE) were cross-sectioned and encased in epoxy. The surface was polished using 120 grit to 600 grit SiC paper, resulting in an exposed area of 0.499±0.01 cm^2. A Pt mesh was used as the counter electrode (CE). In terms of the reference electrodes (RE), a Saturated Calomel Electrode (SCE) was used for solutions with chloride and a Mercury Mercurous Sulfate Electrode (MSE) for solutions without chloride, satisfying the electrochemical cell requirements of ASTM standard G5 [38]. Though the experiments without chlorides were measured with MSE, the results were converted to SCE.\nThe WE, RE, and CE were placed in a test cell containing a synthetic pore solution (SPS). This SPS mimics the concrete pore environment and followed a formula consisting of 8.33 g/L NaOH+23.3 g/L KOH+2.0 g/L Ca(OH)2 (pH:13.6). These solutions were prepared using deionized water from a Milli-Q Water Purification System (resistivity: 18.2-18.7 MΩ·cm) and analytically pure grade reagents.\nThe testing procedure involved an initial pH measurement of the solution followed by purging the cell with CO2-free air (300 cc/min or more) for 5 minutes, prior to introducing the WE and throughout the experiment to reduce the effects of carbonation. More details can be found elsewhere. 2 M NaCl was chosen for the experiments since previously tested concentrations were not able to break the passive film generated in this highly alkaline environment. After chloride addition, the electrolyte was stirred for 4 h, while continuing to purge with CO2-free air. Then stirring stopped and purging was continued for 20 h to allow for passivation of the substrate. […] This procedure is similar to ASTM G180 [41]. The difference is related to the use of SPS instead of a cement slurry. Using a Gamry Reference 600+Potentiostat, different electrochemical tests were performed including open circuit potential (OCP), linear polarization resistance (LPR) and Anodic Cyclic Polarization (CYP).\nApplying the criteria from ASTM C876 [70], it can be seen that most conditions are at low risk of corrosion. […]"}, "[2]": {"assay": "XRD quantitative phase analysis of carbon steel discs after immersion", "conditions": "disc 4: SPS + 2M NaCl + NMP + 3 mM BPT, four-week immersion", "experimental": "Four 3 mm height discs were cut from […] diameter steel rebar and one of their flat faces was polished using silicon carbide sandpaper with 250, 400 and, 600 grit. Subsequently each disc was immersed for 90 seconds in 10 mL of a freshly prepared Clarke solution [42], rinsed thoroughly with water, acetone and dried under a soft stream of dry N2. The crystalline structure of the samples was analyzed on their sheeny face employing X-Ray powder diffraction (XRD) using a Bruker D8 Advance Eco diffractometer applying Cu-Kα1,2 radiation. All samples were scanned at 40 kV and 25 mA in the […] of 31-66° and 2.0 s of step time per 2θ=0.019°. The crystalline planes used to perform the quantitative phase analysis (QPA) are for iron at 2θ=44.6°; [2,0,0] for lepidocrocite at 2θ=47.4° and, [2,2,0] for goethite at 2θ=33.6°.\nSubsequently, each one of the discs was immersed in a solution with the composition as described on Table 5 and their surfaces were analyzed using XRD four weeks later. The diffraction patterns are shown in FIG. 9 and the quantitative phase analysis (QPA) data is given on Table 6."}}, "data": [{"smiles": "c1ccc(Cn2cc(-c3ccccc3)nn2)cc1", "note": "[BPT, 1-Benzyl-4-Phenyl-1H-1,2,3-triazole]", "values": [{"measurement": "OCP", "setting": "[1]; 1 mM BPT in SPS", "value": "−219.58", "unit": "mV vs. SCE"}, {"measurement": "OCP", "setting": "[1]; 2 mM BPT in SPS", "value": "−236.13", "unit": "mV vs. SCE"}, {"measurement": "OCP", "setting": "[1]; 3 mM BPT in SPS", "value": "−258.55", "unit": "mV vs. SCE"}, {"measurement": "Area under main Fe signal", "setting": "[2]", "value": 33.501}, {"measurement": "Area under main Lepidocrocite signal", "setting": "[2]", "value": 1.245}]}]}
